Consider 76 compounds from the supplement of paper PMC10398353.

Where a name gives a salt, the structure may show the parent alone. ± gives the standard deviation of the averaged measurements. Some of the results follow. The data scatter; read single values as rough.

The test system of the test is Salmonella enterica serovar Typhimurium ST313 D23580. As to the kind of experiment: normalized bacterial growth (OD600 20 h minus 0 h, interquartile-mean normalized) (fraction of plate interquartile mean); higher = more bacterial growth (less inhibition). As to conditions: LPM (pH 5.8, low phosphate, low Mg2+), concentration: 10 µM, temperature: 37 °C.
In turn, `O=C(N/N=C/c1ccc([N+](=O)[O-])o1)c1ccc(O)cc1` gave a normalized bacterial growth of 1.18.

`O=C1C=CC(=O)c2c1ccc1c2ccc2ccccc21` ["Chrysene-1,4-quinone"]: the normalized bacterial growth is 0.854.

In turn, `NC(=O)c1ncn([C@@H]2O[C@H](CO)[C@@H](O)[C@H]2O)c1O` [Mizoribine] came in with a normalized bacterial growth of 1.22.

Compound `CC(C)(O/N=C(\C(=O)N[C@@H]1C(=O)N2C(C(=O)[O-])=C(C[n+]3ccccc3)CS[C@H]12)c1csc(N)n1)C(=O)O` [Ceftazidime pentahydrate] returned a normalized bacterial growth of 0.759.

Take `CC(C)(O/N=C(\C(=O)N[C@@H]1C(=O)N2C(C(=O)[O-])=C(C[n+]3ccccc3)CS[C@H]12)c1csc(N)n1)C(=O)O`: the normalized bacterial growth turned out to be 0.859.

Compound `O=c1onc2n1-c1cc(Br)ccc1OC2` showed a normalized bacterial growth of 0.976.

Regarding `OC[C@H]1O[C@@H](OCCc2ccc(O)cc2)[C@H](O)[C@@H](O)[C@@H]1O`, the normalized bacterial growth stood at 1.26.

Take `COc1ccc(C2CC(=O)c3ccc(OC)cc3O2)cc1` (stereo unspecified): the normalized bacterial growth stood at 0.629.

The compound `CNCCC=C1c2ccccc2CCc2ccccc21` [Nortriptyline hydrochloride] gave a normalized bacterial growth of 0.777.

Turning to `CNCCC=C1c2ccccc2CCc2ccccc21`, the normalized bacterial growth worked out at 0.813.

Regarding `C[C@H]1[C@H](NC(=O)/C(=N\OC(C)(C)C(=O)O)c2csc(N)n2)C(=O)N1S(=O)(=O)O` [Aztreonam], the normalized bacterial growth came to 0.0646.

Compound `CC(=O)O[C@H]1CC[C@]2(C)[C@H]3CC[C@@]4(C)[C@H](c5ccoc5)OC(=O)[C@H]5O[C@]54[C@]3(C)[C@H](OC(C)=O)C[C@H]2C1(C)C` [3beta-ACETOXYDEOXODIHYDROGEDUNIN] came in with a normalized bacterial growth of 1.19.

In the case of `Cc1ccc2c(c1)CC[C@H]1CC(=O)CC[C@]21C`, the normalized bacterial growth was found to be 1.22.

The compound `NCC(O)c1ccc(O)c(O)c1` (stereo not drawn) [()-Norepinephrine (+)bitartrate] registered a normalized bacterial growth of 1.05.

`O=c1ccc2c(OCCCCc3ccccc3)c3ccoc3cc2o1` [Psora-4] came in with a normalized bacterial growth of 1.1.

Consider `NC(=O)c1cc[n+](CC2=C(C(=O)O)N3C(=O)[C@@H](NC(=O)C(c4ccccc4)S(=O)(=O)[O-])[C@H]3SC2)cc1` (stereo partly specified) [Cefsulodin sodium salt hydrate], for which the normalized bacterial growth was determined as 0.91.

`CCn1cc(C(=O)O)c(=O)c2cc(F)c(N3CCNC(C)C3)c(F)c21` (stereo unspecified) [Lomefloxacin hydrochloride] registered a normalized bacterial growth of 1.09.

Regarding `COc1cc(C)nc(-n2nc(C)cc2OC)n1` [Epirizole], the normalized bacterial growth was found to be 1.03.

As for `CS(=O)(=O)Nc1ccc([N+](=O)[O-])cc1Oc1ccccc1` [Nimesulide], the normalized bacterial growth turned out to be 1.02.

For the compound `O=C(O)C1=CCNCC1` [Isoguvacine hydrochloride], the normalized bacterial growth came out at 1.04.

Turning to `CNC(=C[N+](=O)[O-])NCCSCc1csc(CN(C)C)n1` [Nizatidine], the normalized bacterial growth stood at 1.02.

In turn, `CNC(=C[N+](=O)[O-])NCCSCc1csc(CN(C)C)n1` registered a normalized bacterial growth of 0.873.

In turn, `CCC1=C[C@@H]2CN(C1)Cc1c([nH]c3ccccc13)[C@@](C(=O)OC)(c1cc3c(cc1OC)N(C)[C@H]1[C@@](O)(C(=O)OC)[C@H](OC(C)=O)[C@]4(CC)C=CCN5CC[C@]31[C@@H]54)C2` came in with a normalized bacterial growth of 0.992.

`CC1(C)[C@@H](O[C@H]2O[C@H](C(=O)O)[C@@H](O)[C@H](O)[C@H]2O[C@@H]2O[C@H](C(=O)O)[C@@H](O)[C@H](O)[C@H]2O)CC[C@]2(C)[C@H]3C(=O)C=C4[C@@H]5C[C@@](C)(C(=O)O)CC[C@]5(C)CC[C@@]4(C)[C@]3(C)CC[C@@H]12` returned a normalized bacterial growth of 1.09.

`CCOC(=O)CCC(=O)O[C@H]1[C@H](O[C@@H]2[C@@H](C)[C@H](O[C@H]3C[C@@](C)(OC)[C@@H](O)[C@H](C)O3)[C@@H](C)C(=O)O[C@H](CC)[C@@](C)(O)[C@H](O)[C@@H](C)C(=O)[C@H](C)C[C@@]2(C)O)O[C@H](C)C[C@@H]1N(C)C`: the normalized bacterial growth was found to be 1.11.

Compound `C[C@]12C=CC(=O)C=C1CC[C@@H]1[C@@H]2C(=O)C[C@@]2(C)[C@H]1CC[C@]2(O)C(=O)CO` gave a normalized bacterial growth of 1.05.

As for `C[C@]12C=CC(=O)C=C1CC[C@@H]1[C@@H]2C(=O)C[C@@]2(C)[C@H]1CC[C@]2(O)C(=O)CO` [Prednisone], the normalized bacterial growth worked out at 1.03.

Take `C[C@]12C=CC(=O)C=C1CC[C@@H]1C2=CC[C@]2(C)[C@@H](C(=O)CN3CCN(c4cc(N5CCCC5)nc(N5CCCC5)n4)CC3)CC[C@@H]12`: the normalized bacterial growth amounted to 1.22.

`C[C@@H]1O[C@@H]1P(=O)(O)O` [Phosphomycin disodium]: the normalized bacterial growth is 1.15.

Consider `Cn1c(=O)c2[nH]c(-c3ccc(S(=O)(=O)O)cc3)nc2n(C)c1=O` [8-(p-Sulfophenyl)theophylline], for which the normalized bacterial growth was found to be 1.14.

As for `CCCCCCCCCCC(C)(C)C(=O)Nc1c(OC)cc(OC)cc1OC`, the normalized bacterial growth was 0.73.

Compound `CCn1cc(C(=O)O)c(=O)c2cc(F)c(N3CCN(C)CC3)cc21` displayed a normalized bacterial growth of 0.576.

Turning to `CC[C@]12CCCN3CCc4c(n(c5ccccc45)C(=O)C1)[C@@H]32`, the normalized bacterial growth worked out at 0.857.

In the case of `CCCCC(=O)Oc1ccccc1C(=O)O`, the normalized bacterial growth is 1.29.

The compound `CC(N)(C(=O)O)c1ccc(C(=O)O)cc1` (stereo not drawn) [()-alpha-Methyl-4-carboxyphenylglycine] showed a normalized bacterial growth of 1.24.

`CC#CCOC(=O)c1c(C)nc2sc3c(c2c1N)CCC(O)C3` (stereo unspecified): the normalized bacterial growth is 0.944.

`COc1cc2c(cc1OC)[C@@H](c1ccccc1)CN(C)CC2` came in with a normalized bacterial growth of 1.13.

As for `NC(=O)c1ncn([C@@H]2O[C@H](CO)[C@@H](O)[C@H]2O)c1N`, the normalized bacterial growth stood at 1.12.

`CC1=C(/C=C/C(C)=C/C=C/C(C)=C/C(=O)Nc2ccc(O)cc2)C(C)(C)CCC1` [Retinoic acid p-hydroxyanilide] displayed a normalized bacterial growth of 0.702.

`CCC(=O)O[C@H]1[C@H](O[C@@H]2[C@@H](C)[C@H](O[C@H]3C[C@@](C)(OC)[C@@H](O)[C@H](C)O3)[C@@H](C)C(=O)O[C@H](CC)[C@@](C)(O)[C@H](O)[C@@H](C)C(=O)[C@H](C)C[C@@]2(C)O)O[C@H](C)C[C@@H]1N(C)C` displayed a normalized bacterial growth of 0.946.

Compound `Nc1ncnc2c1ncn2[C@@H]1O[C@H](COP(=O)(O)O)[C@@H](O)[C@H]1O` registered a normalized bacterial growth of 0.264.

For the compound `O=C(O)c1cc(O)c2c(c1)[C@H]([C@H]1c3cc(C(=O)O)cc(O)c3C(=O)c3c(O[C@@H]4O[C@H](CO)[C@@H](O)[C@H](O)[C@H]4O)cccc31)c1cccc(O[C@@H]3O[C@H](CO)[C@@H](O)[C@H](O)[C@H]3O)c1C2=O`, the normalized bacterial growth was found to be 0.849.

Consider `CC(=O)Oc1cc(C(C)C)c(OCCN(C)C)cc1C` [Moxisylyte hydrochloride], for which the normalized bacterial growth came to 0.95.

In the case of `CC(c1cc2ccccc2s1)N(O)C(N)=O` (stereo unspecified), the normalized bacterial growth is 1.04.

The compound `C[C@@H]1C(=O)O[C@H]2C[C@@]34[C@H]5C[C@@H](C(C)(C)C)[C@]36[C@@H](OC(=O)[C@@H]6O)O[C@@]4(C(=O)O5)[C@]21O` [Ginkgolide A] showed a normalized bacterial growth of 1.17.

For `C[C@@H]1C(=O)O[C@H]2C[C@@]34[C@H]5C[C@@H](C(C)(C)C)[C@]36[C@@H](OC(=O)[C@@H]6O)O[C@@]4(C(=O)O5)[C@]21O`, the normalized bacterial growth stood at 0.967 ± 0.011.

For the compound `C[n+]1cccc(C(=O)[O-])c1`, the normalized bacterial growth came to 0.954 ± 0.11.

In turn, `NS(=O)(=O)c1cc2c(cc1Cl)NCNS2(=O)=O` [Hydrochlorothiazide] came in with a normalized bacterial growth of 1.21.

In the case of `CC(=O)O[C@H]1CC[C@]2(C)[C@H]3CC=C4[C@@H]5CC(C)(C)CC[C@]5(C)CC[C@@]4(C)[C@]3(C)CC[C@H]2C1(C)C` [beta-AMYRIN ACETATE], the normalized bacterial growth was found to be 0.768.

For `C[N+]1(C)CCC(=C(c2ccccc2)c2ccccc2)CC1` [Diphemanil methylsulfate], the normalized bacterial growth is 0.973.

In turn, `COc1cc(/C=C/C(=O)O)ccc1O` had a normalized bacterial growth of 1.15.

Compound `CN(C)CCc1c[nH]c2ccc(C[C@H]3COC(=O)N3)cc12` yielded a normalized bacterial growth of 1.05.

Turning to `CN(C)CCC=C1c2ccccc2C=Cc2ccccc21` [Cyclobenzaprine hydrochloride], the normalized bacterial growth stood at 0.916.

Turning to `O=C1c2cccc(O)c2C(=O)c2c(O)cc(CO)cc21`, the normalized bacterial growth was found to be 1.07.

Turning to `O=c1[nH]c(=O)n([C@H]2C[C@H](O)[C@@H](CO)O2)cc1F`, the normalized bacterial growth worked out at 0.0905.

`C[C@H]1C[C@H]2[C@@H]3CCC4=CC(=O)C=C[C@]4(C)[C@@]3(Cl)[C@@H](O)C[C@]2(C)[C@@]1(O)C(=O)CO` [Beclomethasone] gave a normalized bacterial growth of 0.899.

In turn, `Oc1ccc(O)cc1` [Hydroquinone] registered a normalized bacterial growth of 0.976.

Compound `COc1cc2nc(N3CCN(C(=O)C4CCCO4)CC3)nc(N)c2cc1OC` (stereo unspecified) [Terazosin hydrochloride] yielded a normalized bacterial growth of 1.06.

`CC1CCC(NC(=O)N(CCCl)N=O)CC1` (stereo unspecified) displayed a normalized bacterial growth of 0.974.

Compound `CC1=C2C(O)C(=O)OC3CC4C(C)(C)C(=O)C=C[C@]4(C)C(CC1)[C@]23C` (stereo partly specified) gave a normalized bacterial growth of 1.03.

On to `Cc1nc(N=Nc2ccc(C(=O)O)cc2)c(COP(=O)(O)O)c(C=O)c1O`, for which the normalized bacterial growth came to 1.17.

`CCCc1cc(OC)c2c(c1)OCO2` gave a normalized bacterial growth of 0.879.

Compound `CC(C)(O)CC[C@@H](O)[C@](C)(O)[C@H]1CC[C@@]2(O)C3=CC(=O)[C@@H]4C[C@@H](O)[C@@H](O)C[C@]4(C)[C@H]3CC[C@]12C` registered a normalized bacterial growth of 1.07.

In the case of `Nc1ccc(S(=O)(=O)Nc2ccc(Cl)nn2)cc1`, the normalized bacterial growth was determined as 1.22.

As to `COC1=C(O)C(=O)c2c(cc3oc(C(C)=O)c(O)c3c2O)C1=O`, the normalized bacterial growth is 1.1.

Compound `COc1cc(O)c(C(C)=O)c(OC)c1` showed a normalized bacterial growth of 1.34.

In turn, `O=C1c2c(O)cc(O)cc2OC(c2ccc(O)c(O)c2)C1O` (stereo unspecified) [()-Taxifolin] registered a normalized bacterial growth of 1.12.

The compound `O=C1c2c(O)cc(O)cc2OC(c2ccc(O)c(O)c2)C1O` (stereo unspecified) displayed a normalized bacterial growth of 0.975.

Consider `CN(C)CCCOc1nn(Cc2ccccc2)c2ccccc12`, for which the normalized bacterial growth worked out at 0.759.

For `CCCCCCCCCCCCCc1ccco1`, the normalized bacterial growth was 1.02.

With `O=c1c(O)c(-c2ccccc2O)oc2cc(O)cc(O)c12`, the normalized bacterial growth was 1.35.

`Cn1cc(C(=O)OCC2CCN(CCNS(C)(=O)=O)CC2)c2ccccc21`: the normalized bacterial growth came to 1.01.

Compound `OC[C@@H](O)[C@@H](O)[C@H](O)[C@@H](O)CO` showed a normalized bacterial growth of 0.856.

In the case of `CCCCC(=O)O[C@]1(C(=O)CO)[C@@H](C)C[C@H]2[C@@H]3CCC4=CC(=O)C=C[C@]4(C)[C@@]3(F)[C@@H](O)C[C@@]21C`, the normalized bacterial growth amounted to 0.782.

For the compound `CNCC[C@H](Oc1ccc(C(F)(F)F)cc1)c1ccccc1` [S-(+)-Fluoxetine hydrochloride], the normalized bacterial growth was found to be 1.18.

On to `COc1cc(C(=O)N2CCOCC2)cc(OC)c1OC`, for which the normalized bacterial growth stood at 1.32.
